No constants are given. Whether binding was seen depends on the method and setting. In cells and extracts the contact can be indirect. A yes stands for co-enrichment or nearness to the bait. Other partners may have been found.
T1: ASCL1 (human (endogenous in NCI-H2107)) (UniProt P50553)
T1 sequence: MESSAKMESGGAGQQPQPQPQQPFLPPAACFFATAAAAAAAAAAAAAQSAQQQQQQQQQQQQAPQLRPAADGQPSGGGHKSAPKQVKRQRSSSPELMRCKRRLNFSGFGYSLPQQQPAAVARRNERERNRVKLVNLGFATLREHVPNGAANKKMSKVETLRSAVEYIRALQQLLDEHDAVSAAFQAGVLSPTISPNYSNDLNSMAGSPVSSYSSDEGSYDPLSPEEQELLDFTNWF

Sequences of proteins named here, by UniProt entry; tags and fusion partners are left off.
UniProt Q13263: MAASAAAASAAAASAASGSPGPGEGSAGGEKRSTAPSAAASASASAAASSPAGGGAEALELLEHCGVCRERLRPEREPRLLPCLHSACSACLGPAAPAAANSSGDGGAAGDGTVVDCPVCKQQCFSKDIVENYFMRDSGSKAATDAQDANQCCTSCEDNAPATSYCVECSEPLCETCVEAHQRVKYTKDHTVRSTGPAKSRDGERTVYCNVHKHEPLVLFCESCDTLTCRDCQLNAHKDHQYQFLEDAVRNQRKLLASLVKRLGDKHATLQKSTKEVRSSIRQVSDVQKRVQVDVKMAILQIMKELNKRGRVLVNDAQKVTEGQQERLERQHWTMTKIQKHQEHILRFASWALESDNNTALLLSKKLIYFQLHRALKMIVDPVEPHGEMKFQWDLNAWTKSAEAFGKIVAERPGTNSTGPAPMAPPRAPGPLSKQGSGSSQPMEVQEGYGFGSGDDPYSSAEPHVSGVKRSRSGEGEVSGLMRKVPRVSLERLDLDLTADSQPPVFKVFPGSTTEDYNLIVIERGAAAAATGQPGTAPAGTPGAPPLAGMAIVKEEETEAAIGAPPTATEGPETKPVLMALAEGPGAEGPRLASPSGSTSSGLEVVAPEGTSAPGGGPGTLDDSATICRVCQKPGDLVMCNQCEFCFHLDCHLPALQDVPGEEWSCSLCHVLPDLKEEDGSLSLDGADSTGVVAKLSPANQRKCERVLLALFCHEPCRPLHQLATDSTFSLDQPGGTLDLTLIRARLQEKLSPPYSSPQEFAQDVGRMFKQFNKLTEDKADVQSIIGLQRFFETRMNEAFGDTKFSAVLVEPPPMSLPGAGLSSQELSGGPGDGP
UniProt Q92786: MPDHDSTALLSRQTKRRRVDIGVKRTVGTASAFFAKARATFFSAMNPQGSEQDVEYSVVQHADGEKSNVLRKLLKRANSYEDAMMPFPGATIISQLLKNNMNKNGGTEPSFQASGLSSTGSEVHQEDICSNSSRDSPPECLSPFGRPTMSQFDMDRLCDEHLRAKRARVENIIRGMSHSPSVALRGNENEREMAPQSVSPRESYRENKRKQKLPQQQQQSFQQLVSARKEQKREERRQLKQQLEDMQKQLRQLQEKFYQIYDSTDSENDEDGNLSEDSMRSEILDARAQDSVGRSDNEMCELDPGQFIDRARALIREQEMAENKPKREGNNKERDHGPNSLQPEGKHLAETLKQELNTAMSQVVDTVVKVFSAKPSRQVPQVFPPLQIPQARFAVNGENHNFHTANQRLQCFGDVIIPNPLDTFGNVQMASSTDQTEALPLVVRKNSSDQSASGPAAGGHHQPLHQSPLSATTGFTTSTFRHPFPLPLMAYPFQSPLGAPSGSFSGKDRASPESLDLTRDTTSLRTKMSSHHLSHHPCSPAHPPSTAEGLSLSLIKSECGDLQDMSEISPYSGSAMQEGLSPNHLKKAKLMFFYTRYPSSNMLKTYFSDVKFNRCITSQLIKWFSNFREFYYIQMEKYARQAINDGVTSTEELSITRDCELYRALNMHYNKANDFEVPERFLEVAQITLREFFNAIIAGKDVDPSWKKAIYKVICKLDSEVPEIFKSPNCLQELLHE
UniProt P15884: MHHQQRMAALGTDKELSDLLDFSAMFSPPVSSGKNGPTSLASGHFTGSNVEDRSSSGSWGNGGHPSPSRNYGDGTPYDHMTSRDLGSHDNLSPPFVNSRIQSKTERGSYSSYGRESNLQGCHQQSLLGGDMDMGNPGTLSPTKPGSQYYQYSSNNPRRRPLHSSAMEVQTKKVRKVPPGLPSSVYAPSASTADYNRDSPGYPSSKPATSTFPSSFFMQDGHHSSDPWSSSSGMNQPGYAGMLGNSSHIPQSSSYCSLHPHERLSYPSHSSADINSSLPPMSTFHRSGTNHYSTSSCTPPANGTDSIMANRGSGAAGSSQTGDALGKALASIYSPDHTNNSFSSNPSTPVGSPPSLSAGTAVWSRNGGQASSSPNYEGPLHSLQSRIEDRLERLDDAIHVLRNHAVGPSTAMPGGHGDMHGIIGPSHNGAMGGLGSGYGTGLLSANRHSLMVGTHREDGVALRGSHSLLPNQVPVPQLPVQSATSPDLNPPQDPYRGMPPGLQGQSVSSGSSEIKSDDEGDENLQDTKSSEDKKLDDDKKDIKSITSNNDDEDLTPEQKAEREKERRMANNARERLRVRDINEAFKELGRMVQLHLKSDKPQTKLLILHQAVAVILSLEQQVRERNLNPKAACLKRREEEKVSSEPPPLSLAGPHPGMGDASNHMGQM
UniProt Q13185: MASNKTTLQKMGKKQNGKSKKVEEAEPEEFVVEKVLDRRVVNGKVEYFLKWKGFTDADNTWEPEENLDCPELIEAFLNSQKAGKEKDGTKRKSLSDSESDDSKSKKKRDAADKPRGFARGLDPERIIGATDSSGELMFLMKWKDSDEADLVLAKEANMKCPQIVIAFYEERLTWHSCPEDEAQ
UniProt Q8TAQ2: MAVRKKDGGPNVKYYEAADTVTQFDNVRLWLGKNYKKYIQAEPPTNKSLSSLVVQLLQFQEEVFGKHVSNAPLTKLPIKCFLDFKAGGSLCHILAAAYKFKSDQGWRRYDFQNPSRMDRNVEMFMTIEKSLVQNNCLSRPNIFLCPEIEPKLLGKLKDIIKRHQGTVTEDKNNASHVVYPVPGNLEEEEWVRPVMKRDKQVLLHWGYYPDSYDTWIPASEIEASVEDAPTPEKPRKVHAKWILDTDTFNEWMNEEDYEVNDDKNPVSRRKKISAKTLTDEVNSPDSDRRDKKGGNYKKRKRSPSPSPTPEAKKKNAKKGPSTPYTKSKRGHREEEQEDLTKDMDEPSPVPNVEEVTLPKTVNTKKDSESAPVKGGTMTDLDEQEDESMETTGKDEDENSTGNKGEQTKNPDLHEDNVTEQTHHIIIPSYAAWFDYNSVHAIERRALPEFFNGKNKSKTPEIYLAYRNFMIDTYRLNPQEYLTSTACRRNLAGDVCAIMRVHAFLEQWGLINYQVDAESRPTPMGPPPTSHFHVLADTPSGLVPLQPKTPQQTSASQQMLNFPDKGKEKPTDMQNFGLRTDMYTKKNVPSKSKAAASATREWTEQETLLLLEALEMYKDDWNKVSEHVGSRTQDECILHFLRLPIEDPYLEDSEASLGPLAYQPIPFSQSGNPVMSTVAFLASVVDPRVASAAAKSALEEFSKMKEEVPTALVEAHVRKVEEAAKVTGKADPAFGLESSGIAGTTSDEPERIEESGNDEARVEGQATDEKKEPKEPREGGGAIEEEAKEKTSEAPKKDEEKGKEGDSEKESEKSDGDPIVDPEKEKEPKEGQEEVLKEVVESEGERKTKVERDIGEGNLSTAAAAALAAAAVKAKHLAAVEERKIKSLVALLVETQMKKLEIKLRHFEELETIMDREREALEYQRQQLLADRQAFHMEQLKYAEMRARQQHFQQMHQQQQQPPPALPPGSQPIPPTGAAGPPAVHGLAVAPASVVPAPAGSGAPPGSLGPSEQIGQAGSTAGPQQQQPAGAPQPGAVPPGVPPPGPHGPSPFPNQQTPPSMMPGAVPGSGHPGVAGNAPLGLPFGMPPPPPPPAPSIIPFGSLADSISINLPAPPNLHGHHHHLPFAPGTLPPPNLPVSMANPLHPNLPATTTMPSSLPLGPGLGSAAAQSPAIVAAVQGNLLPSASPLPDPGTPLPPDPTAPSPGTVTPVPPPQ
UniProt P45973: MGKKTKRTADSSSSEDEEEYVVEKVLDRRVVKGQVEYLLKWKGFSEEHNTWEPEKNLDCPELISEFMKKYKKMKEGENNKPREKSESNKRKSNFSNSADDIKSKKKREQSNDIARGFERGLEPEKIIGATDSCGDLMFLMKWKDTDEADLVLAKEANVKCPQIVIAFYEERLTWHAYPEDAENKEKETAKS
UniProt Q99081: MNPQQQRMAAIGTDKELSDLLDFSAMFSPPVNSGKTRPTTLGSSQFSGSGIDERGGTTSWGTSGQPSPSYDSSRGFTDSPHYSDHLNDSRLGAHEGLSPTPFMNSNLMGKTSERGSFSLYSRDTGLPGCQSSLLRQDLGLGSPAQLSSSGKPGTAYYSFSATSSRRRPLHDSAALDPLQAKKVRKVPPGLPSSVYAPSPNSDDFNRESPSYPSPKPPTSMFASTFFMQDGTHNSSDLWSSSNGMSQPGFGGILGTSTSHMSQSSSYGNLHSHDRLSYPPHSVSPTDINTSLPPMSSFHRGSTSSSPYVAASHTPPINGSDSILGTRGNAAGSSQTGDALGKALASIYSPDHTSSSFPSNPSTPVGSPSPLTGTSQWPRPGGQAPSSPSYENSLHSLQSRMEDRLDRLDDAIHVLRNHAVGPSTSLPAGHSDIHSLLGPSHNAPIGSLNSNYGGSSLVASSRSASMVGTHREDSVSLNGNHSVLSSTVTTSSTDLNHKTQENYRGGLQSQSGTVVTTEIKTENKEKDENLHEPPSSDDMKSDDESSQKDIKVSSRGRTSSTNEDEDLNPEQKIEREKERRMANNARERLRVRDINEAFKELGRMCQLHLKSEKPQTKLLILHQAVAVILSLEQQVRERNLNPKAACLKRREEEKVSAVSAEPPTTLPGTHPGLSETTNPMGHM


Biological target: T1, ASCL1 (human (endogenous in NCI-H2107))
Test: affinity purification with mass spectrometry

binding | Molecule
binds | TRIM28 (from UniProt Q13263 1-835)
binds | PROX1 (from UniProt Q92786 1-737)
binds | TCF4 (from UniProt P15884 1-667)
binds | CBX3 (from UniProt Q13185 1-183)
binds | SMARCC2 (from UniProt Q8TAQ2 1-1214)
binds | CBX5 (from UniProt P45973 1-191)
binds | TCF12 (from UniProt Q99081 1-682)
binds | NKX2-1 (protein, UniProt P43699 1-371) MSMSPKHTTPFSVSDILSPLEESYKKVGMEGGGLGAPLAAYRQGQAAPPTAAMQQHAVGHHGAVTAAYHMTAAGVPQLSHSAVGGYCNGNLGNMSELPPYQDTMRNSASGPGWYGANPDPRFPAISRFMGPASGMNMSGMGGLGSLGDVSKNMAPLPSAPRRKRRVLFSQAQVYELERRFKQQKYLSAPEREHLASMIHLTPTQVKIWFQNHRYKMKRQAKDKAAQQQLQQDSGGGGGGGGTGCPQQQQAQQQSPRRVAVPVLVKDGKPCQAGAPAPGAASLQGHAQQQAQHQAQAAQAAAAAISVGSGGAGLGAHPGHQPGSAGQSPDLAHHAASPAALQGQVSSLSHLNSSGSDYGTMSCSTLLYGRTW

Reference: article doi:10.1101/2020.08.13.249029
